Measured values reported in paper PMC7973409.
No constants are given. Whether binding was seen depends on the method and setting.

Target: T1, DbpA C-terminal construct comprising the C-terminal RecA domain plus the RRM (residues 209–457) (E. coli) (UniProt P21693)
T1 sequence: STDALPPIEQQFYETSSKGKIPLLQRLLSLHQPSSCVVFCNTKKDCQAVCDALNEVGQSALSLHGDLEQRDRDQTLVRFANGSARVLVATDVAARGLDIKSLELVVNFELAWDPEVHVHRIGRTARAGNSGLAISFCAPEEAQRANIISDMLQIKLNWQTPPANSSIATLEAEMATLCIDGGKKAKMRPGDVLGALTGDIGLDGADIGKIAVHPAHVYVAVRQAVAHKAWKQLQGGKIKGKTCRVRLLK
Test: overlay of NMR spectra (1H13C-HMQC of the isolated constructs against full length DbpA); methyl spectra of each isolated construct compared with that of full length DbpA (residues 1-457); the two constructs were not mixed; 298 K, 800 MHz, perdeuterated ILMVA-labelled samples; both purified

binding: no binding
B1: DbpA N-terminal construct comprising the N-terminal RecA domain (residues 1–214) (domain or fragment, UniProt P21693 1-214)
chain: MTAFSTLNVLPPAQLTNLNELGYLTMTPVQAAALPAILAGKDVRVQAKTGSGKTAAFGLGLLQQIDASLFQTQALVLCPTRELADQVAGELRRLARFLPNTKILTLCGGQPFGMQRDSLQHAPHIIVATPGRLLDHLQKGTVSLDALNTLVMDEADRMLDMGFSDAIDDVIRFAPASRQTLLFSATWPEAIAAISGRVQRDPLAIEIDSTDALP
